Values of other authors as cited in patent US20210290598A1, “MEDICAMENT USEFUL FOR CARDIOVASCULAR DISEASE” (NATIONAL UNIVERSITY CORPORATION OKAYAMA UNIVERSITY, priority 2018, published 2021).
For at least one compound, name, drawing or mass did not settle the structure.

Test system: patients with type 2 diabetes
Details: 9,795 patients aged 50-75 years with type 2 diabetes, five years, versus placebo; cited from earlier work

CC(C)OC(=O)C(C)(C)Oc1ccc(C(=O)c2ccc(Cl)cc2)cc1 [fenofibrate]
efficacy on secondary endpoints such as non-fatal myocardial infarction and coronary reconstruction: showed efficacy
